Reference: US10501801B2, “Identification of tumor-protective epitopes for the treatment of cancers” (THE UNIVERSITY OF CONNECTICUT, priority 2012, dated 2019)
Not every detail of the peptide structures is certain; ends, links or a residue may be inferred. Ends that are not written are not given here.

Columns and labels:
Meth A = Meth A tumor challenge, Tnpo3 immunization combined with immune modulators; format: in vivo, BALB/cJ mice; settings: for Protection from tumor growth: FIG. 12
CD8+ cells = experiment: Foot pad immunization and intracellular IFN-γ assay of draining lymph node cells; format: in vivo, BALB/c mice; settings: reactivity to mutant vs wild type peptide, FIG. 9
CD8+ CD44+IFNγ+ cells = experiment: Response of CD8+ cells from mice immunized with irradiated Meth A cells to peptides; format: in vivo; settings: FIG. 10

For SYMLQALCI [Tnpo3, (sy/LD)MLQALCI], the “Number of mice that rejected the tumor / total” value (Meth A; FIG. 11, 50 μg CpG ODN1826, 50 μg Tnpo3 peptide or both) was 2/9, the “Protection from tumor growth by AUC” value (Meth A; FIG. 11, compared to un-immunized mice) was “did not achieve statistical significance” and the “Protection from tumor growth” value (Meth A; anti-CD25 experiment) was “significant protection”. The “Protection from tumor growth” value (Meth A; anti-CTLA4 experiment) was “statistically significant protection”, the “CD8+ immune response of mutant Tnpo3-immunized mice ex vivo” value (CD8+ cells) was “strictly tumor-specific CD8+ immune response” and the “Recognition of peptide-pulsed cells by CD8+ CD44+IFNγ+ cells from Meth A-immunized mice” value (CD8+ CD44+IFNγ+ cells) was “recognize mutant Tnpo3-pulsed cells”.
